Reference: paper PMC6629176
These are yes or no findings as the source states them, for the method shown. In cells and extracts the contact can be indirect. Some entries that bind do so weakly or less than the wild type.

Chains of the proteins cited; added tags and fusions are not shown.
UniProt P62960: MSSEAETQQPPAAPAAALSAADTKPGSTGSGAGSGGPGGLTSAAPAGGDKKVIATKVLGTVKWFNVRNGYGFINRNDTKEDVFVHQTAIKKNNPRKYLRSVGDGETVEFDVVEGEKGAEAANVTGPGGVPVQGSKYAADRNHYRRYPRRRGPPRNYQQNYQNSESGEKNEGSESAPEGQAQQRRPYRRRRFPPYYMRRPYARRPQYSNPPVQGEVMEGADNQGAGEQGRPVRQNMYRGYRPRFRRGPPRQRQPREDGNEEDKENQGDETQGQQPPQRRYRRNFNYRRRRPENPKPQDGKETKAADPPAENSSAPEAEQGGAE
UniProt Q8CFI0: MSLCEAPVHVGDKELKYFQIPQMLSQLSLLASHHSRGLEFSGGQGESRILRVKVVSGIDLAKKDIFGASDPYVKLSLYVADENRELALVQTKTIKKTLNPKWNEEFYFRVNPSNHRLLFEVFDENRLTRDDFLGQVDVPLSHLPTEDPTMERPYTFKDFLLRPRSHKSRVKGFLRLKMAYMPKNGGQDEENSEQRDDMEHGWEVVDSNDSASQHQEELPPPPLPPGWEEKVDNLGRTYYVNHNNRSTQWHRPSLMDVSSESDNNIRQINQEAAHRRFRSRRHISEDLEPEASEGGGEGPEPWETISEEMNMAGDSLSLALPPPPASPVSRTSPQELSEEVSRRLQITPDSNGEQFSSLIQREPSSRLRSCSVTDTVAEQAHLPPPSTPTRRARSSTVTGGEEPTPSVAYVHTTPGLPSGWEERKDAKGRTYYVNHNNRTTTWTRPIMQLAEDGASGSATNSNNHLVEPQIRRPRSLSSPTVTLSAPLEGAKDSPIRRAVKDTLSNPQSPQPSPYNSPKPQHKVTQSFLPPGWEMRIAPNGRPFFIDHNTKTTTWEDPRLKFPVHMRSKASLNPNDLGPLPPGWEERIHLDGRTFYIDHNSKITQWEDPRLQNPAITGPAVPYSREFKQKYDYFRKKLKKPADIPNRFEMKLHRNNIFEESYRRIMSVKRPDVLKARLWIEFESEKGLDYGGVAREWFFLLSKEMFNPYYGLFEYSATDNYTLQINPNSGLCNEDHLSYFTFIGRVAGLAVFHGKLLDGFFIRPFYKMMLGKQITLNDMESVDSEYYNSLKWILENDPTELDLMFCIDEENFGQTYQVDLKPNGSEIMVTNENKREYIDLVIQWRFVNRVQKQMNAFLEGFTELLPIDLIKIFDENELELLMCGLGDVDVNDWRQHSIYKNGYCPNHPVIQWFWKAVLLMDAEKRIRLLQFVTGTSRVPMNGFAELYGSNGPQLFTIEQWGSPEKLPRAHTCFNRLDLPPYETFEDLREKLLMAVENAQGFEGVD

Molecular target: Ybx1 (Y-box binding protein 1) (not stated (endogenous in cardiomyocytes; mouse or rat cardiomyocytes isolated)) (UniProt P62960)
Assay: co-IP; cell lysates of cardiomyocytes (with circNfix knockdown or overexpression) immunoprecipitated with antibody against Ybx1, immunoblotted with anti-ubiquitin, anti-Ybx1 or anti-Nedd4l antibody

binding: binds
Substance: Nedd4l (an E3 ubiquitin ligase) (from UniProt Q8CFI0 1-1004) (enzyme)
